Test results reported in article PMC12040169 (PLOS Biology, 2025).
The list shows a part of the results.

Tested on: T1, CTL2-GFP (C. trachomatis L2/434/Bu, GFP-expressing)
T1 construct: L2/434/Bu, GFP-expressing
Design: species or system HeLa; Intracellular C. trachomatis growth in HeLa cells, bulk GFP fluorescence relative to DMSO
Details: bulk GFP, single well; 28.5 h, 10 µM; inhibitor

Going from `COc1ccc(C(=O)N2CCC3(CCCN(C(=O)c4ccco4)C3)C2)cc1OC` (stereo not drawn) [CBK131647] to `O=C(c1cncnc1)N1CCC2(CCN(C(=O)c3ccoc3)C2)C1` (stereo not drawn) [CBK131755], the “% of control remaining” value rises from 65.6738% to 89.5964%.

Going from `COc1ccc(-c2ccc3c(c2)OC2(CCN(C(=O)c4cc(OC)c(C)c(OC)c4)CC2)CC3=O)cn1` [CBK169424] to `CCOc1cccc(-c2cn3ccnc3c(NCc3cc(OC)c(OC)c(OC)c3)n2)c1` [CBK066717], the “% of control remaining” value falls from 116.634% to 113.163%.

Compared with `CC(NC(=O)C1CCN(CCc2ccccc2)CC1)c1ccccc1` (stereo not drawn) [CBK148612], `O=C(CN1CCC(Cc2ccccc2)CC1)Nc1ccc(F)c(Cl)c1` [CBK126387] is higher in “% of control remaining” value: 103.873% for the first, 110.316% for the second.

First: CCC(C)(C)c1ccc(S(=O)(=O)N2CCCN(Cc3c[nH]c(=O)[nH]c3=O)CC2)cc1 [CBK062881]
Second: CCN(CC(=O)N1CCN(C)CC1)S(=O)(=O)c1cc(Cl)ccc1Cl [CBK269297]
The “% of control remaining” value of the first is higher: 157.15% for the first, 107.11% for the second.

Compared with `Cn1ccnc1CNC(=O)N1CCCC(C(=O)c2cccc(Cl)c2)C1` (stereo not drawn) [CBK307479], `O=C(O)c1cccc(-c2cn3ccnc3c(N3CCOCC3)n2)c1` [CBK038053] is higher in “% of control remaining” value: 94.4895% for the first, 210.058% for the second.

First: O=C(NCCn1nc(-c2ccco2)ccc1=O)c1cccs1 [CBK283704]
Second: O=C(NCCOc1ccccc1Cc1ccccc1)c1cncc(Br)c1 [CBK266581]
The “% of control remaining” value of the first is lower: 118.097% for the first, 140.462% for the second.

First: CS(=O)(=O)c1ccc(-c2cnc(N)c(NCCCO)n2)cc1 [CBK063587]
Second: Cc1ccc(CS(=O)(=O)NCCn2nc(C)c(C)c2C)cc1 [CBK281383]
The “% of control remaining” value of the first is higher: 241.516% for the first, 124.264% for the second.

Going from `N#C/C(=C(/O)c1ccc(-c2ccc([N+](=O)[O-])cc2Cl)o1)c1nc(-c2ccc(F)cc2)cs1` [CBK266742] to `COc1cccc(/C=N/N2C(=O)c3ccc([N+](=O)[O-])cc3NC2c2cccc(OC)c2O)c1O` (stereo not drawn) [CBK074439], the “% of control remaining” value falls from 162.982% to 85.2461%.

Going from `Cc1ccnn1CCC(=O)N1CCC(c2cc3cccnc3[nH]2)CC1` [CBK284912] to `CN1CCN(C(=O)c2cnc3cc(C(F)(F)F)ccc3c2O)CC1` [CBK107423], the “% of control remaining” value rises from 112.993% to 137.836%.

Compared with `CCCc1nnc2sc(C3CCCN(C(C)C)C3)nn12` (stereo not drawn) [CBK306781], `O=C(Cn1nc(C(=O)O)c2ccccc2c1=O)c1ccc(C2CCCCC2)cc1` [CBK297538] is higher in “% of control remaining” value: 112.433% for the first, 141.871% for the second.

Compared with `Cc1ccsc1CN(CCCO)Cc1cn(C)nc1C` [CBK282983], `CCN(CC)CCN(Cc1cc2ccc(C)cc2[nH]c1=O)C(=O)Nc1ccc(Cl)cc1` [CBK068680] is higher in “% of control remaining” value: 118.521% for the first, 121.437% for the second.

Compared with `CCn1c(SCC(=O)c2ccc(F)cc2)nnc1C(C)Oc1ccccc1` (stereo not drawn) [CBK269695], `Cc1ccc(C2CCCN2C(=O)c2ccc(=O)n(CC(=O)N(C)c3ccccc3)c2)cc1C` (stereo not drawn) [CBK285653] is higher in “% of control remaining” value: 75.329% for the first, 106.227% for the second.

First: c1cc2c(cc1-c1nn3cnnc3s1)OCCO2 [CBK287866]
Second: COc1ccc(S(=O)(=O)N(CC(=O)Nc2ccc3c(c2)OCCO3)c2ccc(F)cc2)cc1 [CBK268584]
The “% of control remaining” value of the first is higher: 126.15% for the first, 98.9376% for the second.

First: COc1ccc(-c2cc(=O)[nH]c(=S)s2)cc1 [CBK288355]
Second: O[C@H]1CN[C@H](c2nc(-c3ccc(OC(F)(F)F)cc3)no2)C1 [CBK288836]
The “% of control remaining” value of the first is higher: 140.489% for the first, 105.075% for the second.

Compared with `CC(C)(C)NC(=O)c1nn2c(c1Br)NC(c1cccs1)CC2C(F)(F)F` (stereo not drawn) [CBK307175], `O=C(Cc1c[nH]c2ccccc12)N1CCC2(CCCN(C(=O)c3cccc(C(F)(F)F)c3)C2)C1` (stereo not drawn) [CBK131578] is higher in “% of control remaining” value: 120.699% for the first, 140.172% for the second.

Compared with `COc1cc(C=C2SC(=S)N(CCCCCC(=O)O)C2=O)cc(OC)c1` [CBK297505], `COc1ccc2c(c1)c(C(=O)N1CC(C)(C)C(C)(O)C1)c(C)n2C` (stereo not drawn) [CBK306896] is higher in “% of control remaining” value: 125.501% for the first, 143.938% for the second.

Going from `Cc1noc(C)c1CS(=O)(=O)Cc1ccc(Cl)cc1` [CBK034194] to `C#CCOc1cccc2oc(CCC)cc(=O)c12` [CBK005628], the “% of control remaining” value rises from 97.2555% to 100%.

Compared with `COc1cc(/C=N/NC(=O)CCN2CCN(C)CC2)cc2c1OCO2` [CBK261504], `O=C1CCC(=O)N1CCOc1nccnc1N1CCN(CCc2ccc3ccccc3c2)CC1` [CBK084307] is higher in “% of control remaining” value: 98.3311% for the first, 118.515% for the second.

Going from `OCCc1ccc(Nc2cc(-c3cc4ccccc4s3)ncn2)cc1` [CBK090770] to `c1ccc(CN2CCN(c3nccnc3OCc3cccnc3)CC2)cc1` [CBK083129T], the “% of control remaining” value falls from 127.996% to 109.212%.

In the case of `O=C1NCCN1c1cccc(Cl)c1` [CBK016915], the “% of control remaining” value is reported as 105.156%.
